Measurements reported in PubChem BioAssay AID1508597 (Cure First, 2020)

- Screen: 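Survival screen with siRNA in ovarian cancer cells derived from patients, with or without rucaparib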 (primary screen)
- Cell system: human ovarian carcinoma lines grown from tumours: OCI-P5x (papillary serous) and OCI-C5x (clear cell)
- Knock-down reagent: siRNA pool against human genes, 1.25 pmol siRNA per well
- Duration: 72 h or 96 h, depending on the cell culture
- Conditions: rucaparib 20 µM (about IC30) or vehicle, present until read-out
- Measurement: 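ATP luminescence measured at 72 or 96 h according to the culture, then normalised and expressed as percent viability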
- Reading the numbers: viability, normalised: higher = more viable cells remaining
- Call rule: 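Active when normalised viability falls below 80 percent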
- Calls: active = viability under 80%; inactive = viability 80% or more
Here is a random part of about 2,100 deposited reagents. 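Calls flag viability under 80% in either arm, not effects specific to rucaparib; the reference for percent is not stated.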 Not stated in the record: the 100% reference.

KAT5 [SID405526926], rucaparib or vehicle Rucaparib, cell line OCI-C5x (clear cell), technical replicate 1 gave viability, normalised (%) = 42.9; active.
KAT5 [SID405526926], rucaparib or vehicle Rucaparib, cell line OCI-C5x (clear cell), technical replicate 2 scored viability, normalised (%) = 32.1; active.
KAT5 [SID405526926], rucaparib or vehicle Rucaparib, cell line OCI-C5x (clear cell), technical replicate 3 showed viability, normalised (%) = 48.3; active.
KAT5 [SID405526926], rucaparib or vehicle Rucaparib, cell line OCI-P5x (serous), technical replicate 1 showed viability, normalised (%) = 51.3; active.
With KAT5 [SID405526926], rucaparib or vehicle Rucaparib, cell line OCI-P5x (serous), technical replicate 2 the deposit lists viability, normalised (%) = 52.9; active.
With KAT5 [SID405526926], rucaparib or vehicle Rucaparib, cell line OCI-P5x (serous), technical replicate 3 the deposit lists viability, normalised (%) = 53.7; active.
With KAT5 [SID405526926], rucaparib or vehicle Vehicle, cell line OCI-C5x (clear cell), technical replicate 1 the deposit lists viability, normalised (%) = 60.7; active.
KAT5 [SID405526926], rucaparib or vehicle Vehicle, cell line OCI-C5x (clear cell), technical replicate 2 gave viability, normalised (%) = 50.9; active.
For KAT5 [SID405526926], rucaparib or vehicle Vehicle, cell line OCI-C5x (clear cell), technical replicate 3, the values are viability, normalised (%) = 46.9; active.
KAT5 [SID405526926], rucaparib or vehicle Vehicle, cell line OCI-P5x (serous), technical replicate 1 showed viability, normalised (%) = 64.1; active.
KAT5 [SID405526926], rucaparib or vehicle Vehicle, cell line OCI-P5x (serous), technical replicate 2 gave viability, normalised (%) = 78.2; active.
With KAT5 [SID405526926], rucaparib or vehicle Vehicle, cell line OCI-P5x (serous), technical replicate 3, the entry reads viability, normalised (%) = 83.7; inactive.
For RAB38 [SID405527747], rucaparib or vehicle Rucaparib, cell line OCI-C5x (clear cell), technical replicate 1, the entry reads viability, normalised (%) = 66.8; active.
For RAB38 [SID405527747], rucaparib or vehicle Rucaparib, cell line OCI-C5x (clear cell), technical replicate 2 the deposit lists viability, normalised (%) = 82.5; inactive.
RAB38 [SID405527747], rucaparib or vehicle Rucaparib, cell line OCI-C5x (clear cell), technical replicate 3 gave viability, normalised (%) = 69.3; active.
RAB38 [SID405527747], rucaparib or vehicle Rucaparib, cell line OCI-P5x (serous), technical replicate 1 showed viability, normalised (%) = 78.3; active.
With RAB38 [SID405527747], rucaparib or vehicle Rucaparib, cell line OCI-P5x (serous), technical replicate 2, the entry reads viability, normalised (%) = 93.6; inactive.
RAB38 [SID405527747], rucaparib or vehicle Rucaparib, cell line OCI-P5x (serous), technical replicate 3 gave viability, normalised (%) = 79.7; active.
RAB38 [SID405527747], rucaparib or vehicle Vehicle, cell line OCI-C5x (clear cell), technical replicate 1 scored viability, normalised (%) = 86; inactive.
For RAB38 [SID405527747], rucaparib or vehicle Vehicle, cell line OCI-C5x (clear cell), technical replicate 2, the values are viability, normalised (%) = 75.1; active.
RAB38 [SID405527747], rucaparib or vehicle Vehicle, cell line OCI-C5x (clear cell), technical replicate 3 scored viability, normalised (%) = 68.9; active.
RAB38 [SID405527747], rucaparib or vehicle Vehicle, cell line OCI-P5x (serous), technical replicate 1 scored viability, normalised (%) = 90; inactive.
For RAB38 [SID405527747], rucaparib or vehicle Vehicle, cell line OCI-P5x (serous), technical replicate 2 the deposit lists viability, normalised (%) = 75.1; active.
With RAB38 [SID405527747], rucaparib or vehicle Vehicle, cell line OCI-P5x (serous), technical replicate 3 the deposit lists viability, normalised (%) = 76; active.

Laid out differently: 5 of the entries above
| gene | PubChem SID | rucaparib or vehicle | cell line | technical replicate | viability, normalised (%) | outcome |
| --- | --- | --- | --- | --- | --- | --- |
| RAB38 | SID405527747 | Rucaparib | OCI-P5x (serous) | 2 | 93.6 | inactive |
| RAB38 | SID405527747 | Rucaparib | OCI-P5x (serous) | 3 | 79.7 | active |
| RAB38 | SID405527747 | Vehicle | OCI-C5x (clear cell) | 1 | 86 | inactive |
| RAB38 | SID405527747 | Vehicle | OCI-C5x (clear cell) | 2 | 75.1 | active |
| RAB38 | SID405527747 | Vehicle | OCI-C5x (clear cell) | 3 | 68.9 | active |

The list goes on:
With EID1 [SID405526745], rucaparib or vehicle Rucaparib, cell line OCI-C5x (clear cell), technical replicate 1 the deposit lists viability, normalised (%) = 57.9; active.
For EID1 [SID405526745], rucaparib or vehicle Rucaparib, cell line OCI-C5x (clear cell), technical replicate 2 the deposit lists viability, normalised (%) = 53.3; active.
EID1 [SID405526745], rucaparib or vehicle Rucaparib, cell line OCI-C5x (clear cell), technical replicate 3 gave viability, normalised (%) = 55.7; active.
With EID1 [SID405526745], rucaparib or vehicle Rucaparib, cell line OCI-P5x (serous), technical replicate 1, the values are viability, normalised (%) = 68.5; active.
EID1 [SID405526745], rucaparib or vehicle Rucaparib, cell line OCI-P5x (serous), technical replicate 2 showed viability, normalised (%) = 69.5; active.
For EID1 [SID405526745], rucaparib or vehicle Rucaparib, cell line OCI-P5x (serous), technical replicate 3 the deposit lists viability, normalised (%) = 74.3; active.
For EID1 [SID405526745], rucaparib or vehicle Vehicle, cell line OCI-C5x (clear cell), technical replicate 1 the deposit lists viability, normalised (%) = 64.5; active.
EID1 [SID405526745], rucaparib or vehicle Vehicle, cell line OCI-C5x (clear cell), technical replicate 2 showed viability, normalised (%) = 80.6; inactive.
EID1 [SID405526745], rucaparib or vehicle Vehicle, cell line OCI-C5x (clear cell), technical replicate 3 gave viability, normalised (%) = 70.2; active.
For EID1 [SID405526745], rucaparib or vehicle Vehicle, cell line OCI-P5x (serous), technical replicate 1 the deposit lists viability, normalised (%) = 69.7; active.
For EID1 [SID405526745], rucaparib or vehicle Vehicle, cell line OCI-P5x (serous), technical replicate 2, the values are viability, normalised (%) = 86.3; inactive.
With EID1 [SID405526745], rucaparib or vehicle Vehicle, cell line OCI-P5x (serous), technical replicate 3, the values are viability, normalised (%) = 114; inactive.
H2BC12 [SID405528427], rucaparib or vehicle Rucaparib, cell line OCI-C5x (clear cell), technical replicate 1 showed viability, normalised (%) = 64.4; active.
With H2BC12 [SID405528427], rucaparib or vehicle Rucaparib, cell line OCI-C5x (clear cell), technical replicate 2, the values are viability, normalised (%) = 69.1; active.
H2BC12 [SID405528427], rucaparib or vehicle Rucaparib, cell line OCI-C5x (clear cell), technical replicate 3 scored viability, normalised (%) = 54.6; active.
H2BC12 [SID405528427], rucaparib or vehicle Rucaparib, cell line OCI-P5x (serous), technical replicate 1 gave viability, normalised (%) = 71.9; active.
H2BC12 [SID405528427], rucaparib or vehicle Rucaparib, cell line OCI-P5x (serous), technical replicate 2 showed viability, normalised (%) = 112; inactive.
With H2BC12 [SID405528427], rucaparib or vehicle Rucaparib, cell line OCI-P5x (serous), technical replicate 3 the deposit lists viability, normalised (%) = 83; inactive.
H2BC12 [SID405528427], rucaparib or vehicle Vehicle, cell line OCI-C5x (clear cell), technical replicate 1 showed viability, normalised (%) = 68.6; active.
H2BC12 [SID405528427], rucaparib or vehicle Vehicle, cell line OCI-C5x (clear cell), technical replicate 2 gave viability, normalised (%) = 55.3; active.
For H2BC12 [SID405528427], rucaparib or vehicle Vehicle, cell line OCI-C5x (clear cell), technical replicate 3, the values are viability, normalised (%) = 55.4; active.
H2BC12 [SID405528427], rucaparib or vehicle Vehicle, cell line OCI-P5x (serous), technical replicate 1 gave viability, normalised (%) = 71.5; active.
With H2BC12 [SID405528427], rucaparib or vehicle Vehicle, cell line OCI-P5x (serous), technical replicate 2, the entry reads viability, normalised (%) = 64.3; active.
H2BC12 [SID405528427], rucaparib or vehicle Vehicle, cell line OCI-P5x (serous), technical replicate 3 showed viability, normalised (%) = 76.9; active.
